Laboratory results: PubChem BioAssay AID1259425 (University of Nebraska Medical Center, 2018)
Shown is an unselected part of about 14,000 reagents tested. Not all columns of the deposit are shown. Not given: the time to read-out.

- Aim: 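Seek colon cancer weak points whose silencing resembles KSR1 loss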 (primary screen)
- Cells: HCT116 human colon cancer cells
- Reagents: siRNA pool against human genes, 50 nM siRNA
- Read-out: 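After 50 nM siRNA pool, branched-DNA assay measures six marker transcripts per well, minus blank, normalised to the geometric mean of two housekeeping transcripts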
- Reading the numbers: BNIP3L mRNA: higher = more BNIP3L transcript after knockdown; NDRG1 mRNA: higher = more NDRG1 transcript after knockdown

SLC2A3 (GeneID 6515) scored BNIP3L mRNA, set 1 = 0.101; NDRG1 mRNA, set 1 = 0.144.
Silencing of TLCD3A (GeneID 79850) came out at: BNIP3L mRNA, set 1 = 0.111; NDRG1 mRNA, set 1 = 0.172.
RHOXF2 (GeneID 84528) scored BNIP3L mRNA, set 1 = 0.435; NDRG1 mRNA, set 1 = 0.395.
Depletion of FURIN (GeneID 5045) gave: BNIP3L mRNA, set 1 = 0.0787; NDRG1 mRNA, set 1 = 0.553.
ULK2 (GeneID 9706) gave BNIP3L mRNA, set 1 = 0.0519; NDRG1 mRNA, set 1 = 0.103.
LEPR (GeneID 3953) showed BNIP3L mRNA, set 1 = 0.066; NDRG1 mRNA, set 1 = 0.15.

3 entries already listed, sorted by “NDRG1 mRNA, set 1”, descending.
FURIN (GeneID 5045) → BNIP3L mRNA, set 1: 0.0787; NDRG1 mRNA, set 1: 0.553
RHOXF2 (GeneID 84528) → BNIP3L mRNA, set 1: 0.435; NDRG1 mRNA, set 1: 0.395
TLCD3A (GeneID 79850) → BNIP3L mRNA, set 1: 0.111; NDRG1 mRNA, set 1: 0.172

Further entries follow.
Depletion of ASIC4 (GeneID 55515) gave: BNIP3L mRNA, set 1 = 0.356; NDRG1 mRNA, set 1 = 0.626.
Against DDR2 (GeneID 4921) the deposit lists BNIP3L mRNA, set 1 = 0.0614; NDRG1 mRNA, set 1 = 0.167.
After knock-down of OAZ3 (GeneID 51686), the screen gave BNIP3L mRNA, set 1 = 0.118; NDRG1 mRNA, set 1 = 0.33.
Silencing of SUPT3H (GeneID 8464) came out at: BNIP3L mRNA, set 1 = 0.135; NDRG1 mRNA, set 1 = 0.298.
SPPL2B (GeneID 56928) showed BNIP3L mRNA, set 1 = 0.341; NDRG1 mRNA, set 1 = 0.155.
Depletion of CSF1 (GeneID 1435) gave: BNIP3L mRNA, set 1 = 0.0607; NDRG1 mRNA, set 1 = 0.124.
After knock-down of ZMYND11 (GeneID 10771), the screen gave BNIP3L mRNA, set 1 = 0.0898; NDRG1 mRNA, set 1 = 0.11.
PGAP6 (GeneID 58986) scored BNIP3L mRNA, set 1 = 0.1; NDRG1 mRNA, set 1 = 0.115.
GOLGA5 (GeneID 9950) scored BNIP3L mRNA, set 1 = 0.18; NDRG1 mRNA, set 1 = 0.145.
APOC2 (GeneID 344) showed BNIP3L mRNA, set 1 = 0.214; NDRG1 mRNA, set 1 = 0.213.
HSPB7 (GeneID 27129) gave BNIP3L mRNA, set 1 = 0.0864; NDRG1 mRNA, set 1 = 0.111.
ZMYND10 (GeneID 51364) showed BNIP3L mRNA, set 1 = 0.102; NDRG1 mRNA, set 1 = 0.0873.
TIMM9 (GeneID 26520) gave BNIP3L mRNA, set 1 = 0.0715; NDRG1 mRNA, set 1 = 0.123.
